In this assay the target is T1, DNAAF2 protein with the Flag tag fused to the C-terminus (UniProt Q9NVR5).
T1 sequence: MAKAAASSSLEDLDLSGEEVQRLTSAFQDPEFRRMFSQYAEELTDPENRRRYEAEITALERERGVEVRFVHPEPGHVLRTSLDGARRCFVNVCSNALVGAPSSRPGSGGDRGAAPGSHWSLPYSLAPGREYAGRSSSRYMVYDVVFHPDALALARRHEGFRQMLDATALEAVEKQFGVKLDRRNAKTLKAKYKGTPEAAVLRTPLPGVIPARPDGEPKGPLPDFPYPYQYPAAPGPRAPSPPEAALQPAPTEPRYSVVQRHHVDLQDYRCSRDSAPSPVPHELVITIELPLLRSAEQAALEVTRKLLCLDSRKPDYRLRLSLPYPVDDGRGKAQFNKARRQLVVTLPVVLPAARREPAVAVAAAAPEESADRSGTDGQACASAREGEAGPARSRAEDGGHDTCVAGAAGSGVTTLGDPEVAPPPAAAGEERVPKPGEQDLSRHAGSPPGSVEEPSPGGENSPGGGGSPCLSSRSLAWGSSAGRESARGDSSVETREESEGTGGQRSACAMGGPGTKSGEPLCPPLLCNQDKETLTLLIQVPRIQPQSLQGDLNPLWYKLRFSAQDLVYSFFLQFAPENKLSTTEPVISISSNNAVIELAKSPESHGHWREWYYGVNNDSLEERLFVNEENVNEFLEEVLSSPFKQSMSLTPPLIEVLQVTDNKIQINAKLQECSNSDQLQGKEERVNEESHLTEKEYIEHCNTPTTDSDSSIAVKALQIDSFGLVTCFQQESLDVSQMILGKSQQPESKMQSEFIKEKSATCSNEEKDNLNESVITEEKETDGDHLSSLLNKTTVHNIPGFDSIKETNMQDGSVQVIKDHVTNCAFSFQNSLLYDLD
The assay is described as follows: co-IP; HA-tagged DNAAF4 co-expressed with Flag-tagged DNAAF2 in HEK293T cells for 48 h; extracts immunoprecipitated with Flag antibody on Protein G magnetic beads overnight at 4°C, washed 5 times with CoIP buffer; western blot with Flag and HA antibodies. On the technique in general: Immunoblotting shows a protein as a band on a membrane.

Numbering of substitutions follows the chain as printed. Numbers in names are those of the source. No constants are given. Whether binding was seen depends on the method and setting. In cells and extracts the contact can be indirect. Some binding calls cover weakened binding; strength is not graded here. Where a sequence is shown, tags or fusion partners need not be part of it.

B1: normal DNAAF4 protein with the HA tag fused to the C-terminus (protein, UniProt Q8WXU2-1 1-420)
chain: MPLQVSDYSWQQTKTAVFLSLPLKGVCVRDTDVFCTENYLKVNFPPFLFEAFLYAPIDDESSKAKIGNDTIVFTLYKKEAAMWETLSVTGVDKEMMQRIREKSILQAQERAKEATEAKAAAKREDQKYALSVMMKIEEEERKKIEDMKENERIKATKALEAWKEYQRKAEEQKKIQREEKLCQKEKQIKEERKKIKYKSLTRNLASRNLAPKGRNSENIFTEKLKEDSIPAPRSVGSIKINFTPRVFPTALRESQVAEEEEWLHKQAEARRAMNTDIAELCDLKEEEKNPEWLKDKGNKLFATENYLAAINAYNLAIRLNNKMPLLYLNRAACHLKLKNLHKAIEDSSKALELLMPPVTDNANARMKAHVRRGTAFCQLELYVEGLQDYEAALKIDPSNKIVQIDAEKIRNVIQGTELKS
Regarding B1, the binding result is “binds”.

B2: mutant DNAAF4 protein (p. G373E) with the HA tag fused to the C-terminus (protein, UniProt Q8WXU2-1 1-420)
chain: B1 chain with G373E
Consider B2, for which the binding entry is given as “binds”.

(Values after article PMC9792849.)
